{"sequences": {"note": "Protein sequences, listed by entry. Tags and fused reporters are not part of them. Residues count along the entry.", "UniProt P20491, residues 19-86": "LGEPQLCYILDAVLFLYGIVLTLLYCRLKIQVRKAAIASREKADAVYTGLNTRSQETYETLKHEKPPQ"}, "source": "paper PMC5663849", "binders": {"B1": {"name": "SH2 domain-containing inositol 5′-phosphatase-1 (enzyme, UniProt Q9ES52 1-1191)", "chain": "MPAMVPGWNHGNITRSKAEELLSRAGKDGSFLVRASESIPRAYALCVLFRNCVYTYRILPNEDDKFTVQASEGVPMRFFTKLDQLIDFYKKENMGLVTHLQYPVPLEEEDAIDEAEEDTVESVMSPPELPPRNIPMSAGPSEAKDLPLATENPRAPEVTRLSLSETLFQRLQSMDTSGLPEEHLKAIQDYLSTQLLLDSDFLKTGSSNLPHLKKLMSLLCKELHGEVIRTLPSLESLQRLFDQQLSPGLRPRPQVPGEASPITMVAKLSQLTSLLSSIEDKVKSLLHEGSESTNRRSLIPPVTFEVKSESLGIPQKMHLKVDVESGKLIVKKSKDGSEDKFYSHKKILQLIKSQKFLNKLVILVETEKEKILRKEYVFADSKKREGFCQLLQQMKNKHSEQPEPDMITIFIGTWNMGNAPPPKKITSWFLSKGQGKTRDDSADYIPHDIYVIGTQEDPLGEKEWLELLRHSLQEVTSMTFKTVAIHTLWNIRIVVLAKPEHENRISHICTDNVKTGIANTLGNKGAVGVSFMFNGTSLGFVNSHLTSGSEKKLRRNQNYMNILRFLALGDKKLSPFNITHRFTHLFWLGDLNYRVELPTWEAEAIIQKIKQQQYSDLLAHDQLLLERKDQKVFLHFEEEEITFAPTYRFERLTRDKYAYTKQKATGMKYNLPSWCDRVLWKSYPLVHVVCQSYGSTSDIMTSDHSPVFATFEAGVTSQFVSKNGPGTVDSQGQIEFLACYATLKTKSQTKFYLEFHSSCLESFVKSQEGENEEGSEGELVVRFGETLPKLKPIISDPEYLLDQHILISIKSSDSDESYGEGCIALRLETTEAQHPIYTPLTHHGEMTGHFRGEIKLQTSQGKMREKLYDFVKTERDESSGMKCLKNLTSHDPMRQWEPSGRVPACGVSSLNEMINPNYIGMGPFGQPLHGKSTLSPDQQLTAWSYDQLPKDSSLGPGRGEGPPTPPSQPPLSPKKFSSSTANRGPCPRVQEARPGDLGKVEALLQEDLLLTKPEMFENPLYGSVSSFPKLVPRKEQESPKMLRKEPPPCPDPGISSPSIVLPKAQEVESVKGTSKQAPVPVLGPTPRIRSFTCSSSAEGRMTSGDKSQGKPKASASSQAPVPVKRPVKPSRSEMSQQTTPIPAPRPPLPVKSPAVLQLQHSKGRDYRDNTELPHHGKHRQEEGLLGRTAMQ"}}, "target": "FcεRI γ-chain (mouse (endogenous in BMDCs)) (UniProt P20491)", "test": "co-IP; WT mouse BMDCs treated with curdlan or dZym (50 µg/mL), harvested at indicated time points; lysates precleared with protein A/G beads (4°C, 2 h), incubated with anti-FcRγ Ab at 4°C for 16 h, protein A/G beads 2 h; SDS-PAGE and Western blot for SHP-1, SHP-2, SHIP-1, PTEN", "note": "These are yes or no findings as the source states them, for the method shown. In cells and extracts the contact can be indirect."}
{"binder": "B1", "values": [{"measurement": "binding", "value": "no binding"}]}
